# PubChem BioAssay AID1259308 | NCATS, 2017
# Test: 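Genes whose loss raises luciferase production in HEK293 cells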 (primary screen)
# Cells: human HEK293 embryonic kidney cells stably expressing firefly luciferase (HEK-CMV-Luc2-Hygro)
# Reagent: single siRNA against human genes, 0.8 pmol siRNA per well
# Duration: 72 h
# Detection: 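Reporter luminescence and viable-cell signal on separate replicate plates, given as percent of non-targeting control and median/MAD z-scores, plus per-cell luciferase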
# Scale: total luciferase, z-score and total luciferase, % of control: higher = more reporter protein produced; luciferase per cell, z-score: higher = more reporter output per viable cell; viable cells, % of control: higher = more viable cells
# Rule for the call: 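An siRNA counts as active if its total luciferase robust z-score exceeds 3; genes with two or more such siRNAs out of three were retested with fresh siRNAs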
# Calls: active = raised luciferase; inactive = no rise
# The deposit covers about 59,000 reagents; shown is a part drawn at random. About 1,510 of all reagents (2.6%) were called active. 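Calls use total luciferase alone and ignore viability, so some active siRNAs may act by altering cell number.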 Unmarked entries are inactive. Reagents against one gene are numbered here. Reagent sequences are not shown.
gene knocked down,reagent,"total luciferase, z-score","total luciferase, % of control","luciferase per cell, z-score","viable cells, % of control"
SLC17A6,1,-0.37,74.5,0.044,82.3
SLC17A6,2,0.675,95.3,0.0458,105
SLC17A6,3,-1.63,49.5,-2.37,103
ADIPOR1 (adiponectin receptor 1),1,0.793,97.7,-0.362,120
ADIPOR1 (adiponectin receptor 1),2,0.643,94.7,-0.0445,107
ADIPOR1 (adiponectin receptor 1),3,-0.0659,80.6,0.0444,89
FERMT1 (FERM domain containing kindlin 1),1,8.06 (active),242,4.76,77.4
FERMT1 (FERM domain containing kindlin 1),2,-0.606,69.8,-0.143,81
FERMT1 (FERM domain containing kindlin 1),3,0.304,87.9,-0.348,108
MNDA (myeloid cell nuclear differentiation antigen),1,-0.56,70.7,-0.391,87.6
MNDA (myeloid cell nuclear differentiation antigen),2,-1.13,59.5,-1.25,92.4
MNDA (myeloid cell nuclear differentiation antigen),3,-0.591,70.1,1.03,59.8
USP16 (ubiquitin specific peptidase 16),1,-0.387,74.2,-0.707,99.8
USP16 (ubiquitin specific peptidase 16),2,0.481,91.4,0.0504,101
USP16 (ubiquitin specific peptidase 16),3,-0.579,70.4,0.375,71.2
LIN7A (lin-7 cell polarity scaffold A),1,-1.87,44.7,-1.61,76.5
LIN7A (lin-7 cell polarity scaffold A),2,-0.659,68.8,-1.2,105
LIN7A (lin-7 cell polarity scaffold A),3,-0.136,79.2,-0.929,113
CEBPA (CCAAT enhancer binding protein alpha),1,-0.633,69.3,-0.717,93.5
CEBPA (CCAAT enhancer binding protein alpha),2,0.38,89.5,1.13,74.3
CEBPA (CCAAT enhancer binding protein alpha),3,3.98 (active),161,2.66,89.3

Ordered by “luciferase per cell, z-score” (ascending): some entries from above.
gene knocked down,reagent,"total luciferase, z-score","total luciferase, % of control","luciferase per cell, z-score","viable cells, % of control"
SLC17A6,3,-1.63,49.5,-2.37,103
ADIPOR1 (adiponectin receptor 1),1,0.793,97.7,-0.362,120
SLC17A6,2,0.675,95.3,0.0458,105

Additional records:
gene knocked down,reagent,"total luciferase, z-score","total luciferase, % of control","luciferase per cell, z-score","viable cells, % of control"
TIMM50 (translocase of inner mitochondrial membrane 50),1,-0.711,67.7,-0.764,92.6
TIMM50 (translocase of inner mitochondrial membrane 50),2,0.028,82.4,0.916,72.4
TIMM50 (translocase of inner mitochondrial membrane 50),3,0.387,89.6,3.06,44.7
ADNP2 (ADNP homeobox 2),1,-0.629,69.4,-0.774,95.1
ADNP2 (ADNP homeobox 2),2,-0.336,75.2,-0.163,87.7
ADNP2 (ADNP homeobox 2),3,0.334,88.5,1.51,66.6
AKNA (AT-hook transcription factor),1,-0.607,69.8,-0.889,98.6
AKNA (AT-hook transcription factor),2,0.606,93.9,0.589,89.9
AKNA (AT-hook transcription factor),3,0.315,88.1,0.049,97.2
DNAI3 (dynein axonemal intermediate chain 3),1,1.18,105,1.21,85.6
DNAI3 (dynein axonemal intermediate chain 3),2,0.825,98.3,0.458,97.3
DNAI3 (dynein axonemal intermediate chain 3),3,0.0503,82.9,-0.246,98.8
PTPN20 (protein tyrosine phosphatase non-receptor type 20),1,-0.385,74.2,-0.419,92.6
PTPN20 (protein tyrosine phosphatase non-receptor type 20),2,-0.178,78.3,-0.619,103
PTPN20 (protein tyrosine phosphatase non-receptor type 20),3,-0.341,75.1,-0.196,88.4
PTPN20 (protein tyrosine phosphatase non-receptor type 20),4,0.211,86.1,-0.123,99.3
PTPN20 (protein tyrosine phosphatase non-receptor type 20),5,0.514,92.1,-0.155,107
PTPN20 (protein tyrosine phosphatase non-receptor type 20),6,-0.311,75.7,-0.616,99.5
